# Experimental data: doi:10.1101/2020.02.18.954487
# Protein sequences, listed by entry. Tags and fused reporters are not part of them.
# UniProt Q9UKV8: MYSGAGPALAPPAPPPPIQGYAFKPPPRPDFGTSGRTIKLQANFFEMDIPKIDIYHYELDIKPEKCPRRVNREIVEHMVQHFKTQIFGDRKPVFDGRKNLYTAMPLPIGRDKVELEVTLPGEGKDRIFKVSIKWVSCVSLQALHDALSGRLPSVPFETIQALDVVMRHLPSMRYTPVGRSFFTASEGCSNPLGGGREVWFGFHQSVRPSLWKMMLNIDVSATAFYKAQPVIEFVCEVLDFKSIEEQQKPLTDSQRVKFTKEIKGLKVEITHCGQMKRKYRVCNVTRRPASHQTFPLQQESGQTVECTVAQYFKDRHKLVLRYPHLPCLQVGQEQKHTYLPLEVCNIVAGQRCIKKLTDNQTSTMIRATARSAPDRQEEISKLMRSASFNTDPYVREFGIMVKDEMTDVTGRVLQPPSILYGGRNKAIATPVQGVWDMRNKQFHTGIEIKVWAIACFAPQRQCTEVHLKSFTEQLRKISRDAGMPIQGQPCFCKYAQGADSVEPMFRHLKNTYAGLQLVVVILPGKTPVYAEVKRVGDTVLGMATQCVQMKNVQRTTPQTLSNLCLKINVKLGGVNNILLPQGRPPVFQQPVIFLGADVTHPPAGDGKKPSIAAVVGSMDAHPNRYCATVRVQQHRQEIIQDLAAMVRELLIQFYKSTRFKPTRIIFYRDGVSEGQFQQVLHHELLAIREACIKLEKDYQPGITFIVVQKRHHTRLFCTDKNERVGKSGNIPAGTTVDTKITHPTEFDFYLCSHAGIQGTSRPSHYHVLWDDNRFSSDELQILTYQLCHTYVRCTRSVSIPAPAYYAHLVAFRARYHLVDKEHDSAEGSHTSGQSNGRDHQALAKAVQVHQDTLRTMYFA
# UniProt Q8NDV7: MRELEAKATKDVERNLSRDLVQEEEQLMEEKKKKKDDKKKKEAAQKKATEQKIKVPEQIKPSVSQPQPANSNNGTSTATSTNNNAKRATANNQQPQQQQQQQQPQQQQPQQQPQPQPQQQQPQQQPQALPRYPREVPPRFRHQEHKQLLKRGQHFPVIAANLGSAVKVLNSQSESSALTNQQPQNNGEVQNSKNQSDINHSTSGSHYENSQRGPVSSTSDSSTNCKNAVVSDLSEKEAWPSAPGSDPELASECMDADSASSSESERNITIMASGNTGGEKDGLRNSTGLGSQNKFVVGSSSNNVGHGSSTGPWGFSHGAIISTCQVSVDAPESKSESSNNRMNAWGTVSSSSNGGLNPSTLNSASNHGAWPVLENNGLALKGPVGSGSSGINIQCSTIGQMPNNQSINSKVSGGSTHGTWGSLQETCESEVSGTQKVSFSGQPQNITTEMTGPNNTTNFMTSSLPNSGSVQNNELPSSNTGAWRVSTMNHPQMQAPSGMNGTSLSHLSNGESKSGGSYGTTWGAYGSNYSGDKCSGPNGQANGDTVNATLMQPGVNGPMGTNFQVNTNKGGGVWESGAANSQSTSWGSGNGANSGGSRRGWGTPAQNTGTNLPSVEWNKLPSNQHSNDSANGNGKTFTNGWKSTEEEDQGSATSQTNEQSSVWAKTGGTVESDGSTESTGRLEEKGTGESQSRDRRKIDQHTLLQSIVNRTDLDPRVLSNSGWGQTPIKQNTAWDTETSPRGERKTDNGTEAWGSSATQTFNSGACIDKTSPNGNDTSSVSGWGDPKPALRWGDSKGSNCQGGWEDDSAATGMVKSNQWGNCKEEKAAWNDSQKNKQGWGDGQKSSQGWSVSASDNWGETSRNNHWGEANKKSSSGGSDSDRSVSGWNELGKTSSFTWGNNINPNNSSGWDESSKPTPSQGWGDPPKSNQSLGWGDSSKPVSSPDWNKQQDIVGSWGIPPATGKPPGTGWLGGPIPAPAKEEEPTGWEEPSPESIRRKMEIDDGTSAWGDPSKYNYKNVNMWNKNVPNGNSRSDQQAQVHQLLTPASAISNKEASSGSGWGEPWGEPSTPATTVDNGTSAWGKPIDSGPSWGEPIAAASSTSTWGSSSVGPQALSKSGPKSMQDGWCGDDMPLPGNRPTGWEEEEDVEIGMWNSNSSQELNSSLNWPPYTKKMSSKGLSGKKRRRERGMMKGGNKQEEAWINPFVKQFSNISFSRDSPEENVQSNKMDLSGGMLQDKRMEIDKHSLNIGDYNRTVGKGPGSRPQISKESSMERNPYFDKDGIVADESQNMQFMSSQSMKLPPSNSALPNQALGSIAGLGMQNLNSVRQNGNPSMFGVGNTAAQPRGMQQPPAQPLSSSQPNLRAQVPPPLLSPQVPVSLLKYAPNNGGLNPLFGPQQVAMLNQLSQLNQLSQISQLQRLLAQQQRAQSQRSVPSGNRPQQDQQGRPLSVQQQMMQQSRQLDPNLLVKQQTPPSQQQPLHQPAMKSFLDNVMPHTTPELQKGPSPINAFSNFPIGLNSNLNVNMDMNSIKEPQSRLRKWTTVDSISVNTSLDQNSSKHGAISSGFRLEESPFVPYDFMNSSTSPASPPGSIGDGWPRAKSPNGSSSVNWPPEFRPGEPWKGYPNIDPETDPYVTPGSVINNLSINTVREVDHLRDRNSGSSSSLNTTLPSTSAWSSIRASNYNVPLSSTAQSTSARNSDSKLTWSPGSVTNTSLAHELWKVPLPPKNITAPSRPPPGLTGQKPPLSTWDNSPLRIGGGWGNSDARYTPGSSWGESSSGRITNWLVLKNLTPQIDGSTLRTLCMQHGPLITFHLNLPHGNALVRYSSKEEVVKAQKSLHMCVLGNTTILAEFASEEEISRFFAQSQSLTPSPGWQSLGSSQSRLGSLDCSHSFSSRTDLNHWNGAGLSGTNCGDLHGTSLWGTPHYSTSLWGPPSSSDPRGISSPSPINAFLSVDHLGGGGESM
# These are yes or no findings as the source states them, for the method shown. Binding seen in cells or lysates may run through a third protein. Some binding calls cover weakened binding; strength is not graded here.
# Experiments:
# [1] = target: FLAG/HA-tagged AGO2 (human) (UniProt Q9UKV8); assay: co-IP
# [2] = target: FLAG/HA-tagged AGO1 (human) (UniProt Q9UL18); assay: co-IP
substance,measurement,setting,value
GW182 (from UniProt Q8NDV7 1-1962),binding,[1],binds
same,binding,[2],binds
